Experimental data from paper PMC12302537.
No constants are given. Whether binding was seen depends on the method and setting. Binding seen in cells or lysates may run through a third protein. Here binding means that the protein was enriched with, or labelled near, the bait; the list need not be complete.

Chains of the proteins cited; added tags and fusions are not shown.
UniProt P97313: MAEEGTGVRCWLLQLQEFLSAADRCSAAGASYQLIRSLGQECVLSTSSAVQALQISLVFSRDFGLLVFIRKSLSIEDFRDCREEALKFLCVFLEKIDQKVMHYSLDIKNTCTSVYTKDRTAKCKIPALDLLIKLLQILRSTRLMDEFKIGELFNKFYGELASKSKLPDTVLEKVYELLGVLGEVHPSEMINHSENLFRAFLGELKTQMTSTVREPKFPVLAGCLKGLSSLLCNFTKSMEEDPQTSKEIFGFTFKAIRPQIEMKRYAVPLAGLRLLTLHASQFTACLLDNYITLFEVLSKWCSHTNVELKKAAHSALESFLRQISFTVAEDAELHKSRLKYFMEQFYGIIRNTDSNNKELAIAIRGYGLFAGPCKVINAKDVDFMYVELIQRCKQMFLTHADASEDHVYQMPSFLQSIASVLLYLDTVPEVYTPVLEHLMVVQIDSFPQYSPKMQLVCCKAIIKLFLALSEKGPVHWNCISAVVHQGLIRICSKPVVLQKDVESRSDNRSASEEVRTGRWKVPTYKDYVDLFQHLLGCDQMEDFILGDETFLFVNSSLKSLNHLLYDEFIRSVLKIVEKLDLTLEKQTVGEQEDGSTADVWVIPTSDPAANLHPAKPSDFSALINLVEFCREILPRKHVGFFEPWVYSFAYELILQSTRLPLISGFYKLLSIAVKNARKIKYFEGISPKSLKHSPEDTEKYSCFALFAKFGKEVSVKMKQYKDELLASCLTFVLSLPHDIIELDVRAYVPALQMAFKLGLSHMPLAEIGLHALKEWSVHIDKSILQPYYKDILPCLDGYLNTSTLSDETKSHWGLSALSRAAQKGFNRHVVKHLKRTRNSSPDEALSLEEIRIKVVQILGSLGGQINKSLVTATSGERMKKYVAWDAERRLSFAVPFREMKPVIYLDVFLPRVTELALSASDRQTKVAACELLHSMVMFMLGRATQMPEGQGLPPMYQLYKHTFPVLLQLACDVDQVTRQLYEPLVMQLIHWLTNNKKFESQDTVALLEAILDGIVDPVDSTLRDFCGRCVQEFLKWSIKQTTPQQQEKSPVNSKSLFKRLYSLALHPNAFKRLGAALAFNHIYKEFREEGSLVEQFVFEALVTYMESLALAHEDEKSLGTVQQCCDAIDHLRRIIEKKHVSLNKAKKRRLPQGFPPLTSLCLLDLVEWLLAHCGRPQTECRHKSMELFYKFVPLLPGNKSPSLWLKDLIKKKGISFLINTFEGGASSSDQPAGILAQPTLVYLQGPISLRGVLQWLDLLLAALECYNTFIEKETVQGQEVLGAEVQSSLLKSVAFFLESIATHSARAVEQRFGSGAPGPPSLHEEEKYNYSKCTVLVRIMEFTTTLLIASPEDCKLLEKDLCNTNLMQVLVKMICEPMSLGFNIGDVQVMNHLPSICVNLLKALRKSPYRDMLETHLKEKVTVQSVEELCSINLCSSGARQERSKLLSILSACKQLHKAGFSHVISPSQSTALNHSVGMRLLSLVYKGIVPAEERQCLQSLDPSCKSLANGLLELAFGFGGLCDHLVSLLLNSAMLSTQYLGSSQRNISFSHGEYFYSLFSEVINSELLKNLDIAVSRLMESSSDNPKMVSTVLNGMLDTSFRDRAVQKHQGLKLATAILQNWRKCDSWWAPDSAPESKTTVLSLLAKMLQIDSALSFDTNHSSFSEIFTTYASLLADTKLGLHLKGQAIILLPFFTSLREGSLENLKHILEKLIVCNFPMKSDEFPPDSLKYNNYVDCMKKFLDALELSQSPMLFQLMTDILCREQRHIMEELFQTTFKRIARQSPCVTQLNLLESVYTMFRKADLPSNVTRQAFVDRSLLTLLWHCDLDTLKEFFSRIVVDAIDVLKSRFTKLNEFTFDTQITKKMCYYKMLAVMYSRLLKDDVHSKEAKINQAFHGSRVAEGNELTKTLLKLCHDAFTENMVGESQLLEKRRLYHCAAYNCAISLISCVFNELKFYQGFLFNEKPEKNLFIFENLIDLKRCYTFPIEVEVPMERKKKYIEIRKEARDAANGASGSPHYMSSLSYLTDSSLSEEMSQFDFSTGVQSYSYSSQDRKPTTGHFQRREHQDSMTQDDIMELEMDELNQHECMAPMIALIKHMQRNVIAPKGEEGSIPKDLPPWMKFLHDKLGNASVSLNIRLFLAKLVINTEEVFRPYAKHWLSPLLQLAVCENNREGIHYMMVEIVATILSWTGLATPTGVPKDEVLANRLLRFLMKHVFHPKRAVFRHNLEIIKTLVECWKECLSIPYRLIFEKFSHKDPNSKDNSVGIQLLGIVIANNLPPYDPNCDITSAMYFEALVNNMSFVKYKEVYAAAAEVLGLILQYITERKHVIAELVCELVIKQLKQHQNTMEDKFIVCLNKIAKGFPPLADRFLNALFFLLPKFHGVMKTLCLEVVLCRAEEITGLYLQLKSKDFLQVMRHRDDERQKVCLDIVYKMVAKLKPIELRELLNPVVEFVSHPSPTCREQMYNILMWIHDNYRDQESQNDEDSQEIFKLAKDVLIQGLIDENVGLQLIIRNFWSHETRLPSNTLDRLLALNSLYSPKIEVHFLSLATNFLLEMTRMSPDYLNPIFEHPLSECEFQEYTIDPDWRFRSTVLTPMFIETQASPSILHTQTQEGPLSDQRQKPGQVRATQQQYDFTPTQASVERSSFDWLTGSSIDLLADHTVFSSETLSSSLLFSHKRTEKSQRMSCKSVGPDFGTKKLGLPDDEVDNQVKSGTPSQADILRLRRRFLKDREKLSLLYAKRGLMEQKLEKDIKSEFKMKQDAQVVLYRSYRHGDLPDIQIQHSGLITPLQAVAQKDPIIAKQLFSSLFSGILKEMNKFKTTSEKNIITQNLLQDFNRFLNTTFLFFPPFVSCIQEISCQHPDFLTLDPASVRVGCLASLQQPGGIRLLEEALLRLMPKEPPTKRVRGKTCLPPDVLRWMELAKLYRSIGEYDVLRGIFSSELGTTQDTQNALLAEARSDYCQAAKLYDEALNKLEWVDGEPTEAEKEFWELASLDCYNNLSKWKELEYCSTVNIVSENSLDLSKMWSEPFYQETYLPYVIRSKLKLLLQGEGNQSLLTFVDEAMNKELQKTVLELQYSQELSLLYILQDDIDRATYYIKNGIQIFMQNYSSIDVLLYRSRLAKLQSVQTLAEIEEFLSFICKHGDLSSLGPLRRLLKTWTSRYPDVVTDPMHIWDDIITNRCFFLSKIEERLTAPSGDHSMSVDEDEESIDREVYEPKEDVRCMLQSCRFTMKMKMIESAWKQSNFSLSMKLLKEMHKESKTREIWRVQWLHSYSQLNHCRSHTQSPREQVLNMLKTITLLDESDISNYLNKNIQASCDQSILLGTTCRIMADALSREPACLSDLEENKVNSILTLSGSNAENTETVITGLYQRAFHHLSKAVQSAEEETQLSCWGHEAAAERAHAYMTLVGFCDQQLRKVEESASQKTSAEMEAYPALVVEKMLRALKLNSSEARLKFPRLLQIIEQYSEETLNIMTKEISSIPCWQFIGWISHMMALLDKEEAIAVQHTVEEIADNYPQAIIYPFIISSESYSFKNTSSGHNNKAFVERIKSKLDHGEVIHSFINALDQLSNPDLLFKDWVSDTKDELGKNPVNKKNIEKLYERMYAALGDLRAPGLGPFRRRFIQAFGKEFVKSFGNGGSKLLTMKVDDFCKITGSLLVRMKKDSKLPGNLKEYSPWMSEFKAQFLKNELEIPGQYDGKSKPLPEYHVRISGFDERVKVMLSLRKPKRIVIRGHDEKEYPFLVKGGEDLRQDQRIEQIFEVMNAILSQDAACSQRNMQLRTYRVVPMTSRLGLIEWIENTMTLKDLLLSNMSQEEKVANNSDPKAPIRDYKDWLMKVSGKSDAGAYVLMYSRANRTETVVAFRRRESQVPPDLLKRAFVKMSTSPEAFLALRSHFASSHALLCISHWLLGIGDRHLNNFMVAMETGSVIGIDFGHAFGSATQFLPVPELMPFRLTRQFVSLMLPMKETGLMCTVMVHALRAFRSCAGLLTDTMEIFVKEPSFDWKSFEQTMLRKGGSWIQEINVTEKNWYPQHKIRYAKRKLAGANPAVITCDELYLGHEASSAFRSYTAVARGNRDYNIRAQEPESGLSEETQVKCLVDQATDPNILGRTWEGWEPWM
UniProt P46938: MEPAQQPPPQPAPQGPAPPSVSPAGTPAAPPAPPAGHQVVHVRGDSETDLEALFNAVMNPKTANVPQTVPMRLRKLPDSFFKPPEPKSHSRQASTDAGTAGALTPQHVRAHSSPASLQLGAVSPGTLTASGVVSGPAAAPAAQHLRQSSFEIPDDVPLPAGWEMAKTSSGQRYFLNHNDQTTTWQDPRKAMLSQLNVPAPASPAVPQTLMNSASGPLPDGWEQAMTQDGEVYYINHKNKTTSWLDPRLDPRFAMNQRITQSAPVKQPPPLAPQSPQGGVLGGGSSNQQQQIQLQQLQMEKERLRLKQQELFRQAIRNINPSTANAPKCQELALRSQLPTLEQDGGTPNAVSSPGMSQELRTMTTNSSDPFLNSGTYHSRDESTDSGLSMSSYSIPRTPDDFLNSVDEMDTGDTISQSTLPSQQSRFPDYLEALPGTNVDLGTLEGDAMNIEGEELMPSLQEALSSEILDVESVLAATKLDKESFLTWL

Target: DNA‐Dependent Protein Kinase catalytic subunit (DNA‐PKcs) (mouse (endogenous in heart tissue)) (UniProt P97313)
Experiment: affinity purification with mass spectrometry; Co-IP-based proteomics: DNA-PKcs immunoprecipitated with antibody on Protein A/G magnetic beads, lysate in RIPA buffer, 4 °C overnight, washed three times with ice-cold PBS; IgG as negative control

binding: binds
Substance: Yes‐Associated Protein 1 (YAP1) (from UniProt P46938 1-488)
